Drawing on the supplement of paper PMC12819154, “High-throughput peptide-centric local stability assay extends protein–ligand identification to membrane proteins, tissues and bacteria” (Nature Structural & Molecular Biology, 2025), this text covers log2 fold change for 31 targets.

The chains behind the UniProt entries cited, without tags or fusion partners. Where a name states a change or a piece, a line headed by the entry shows the natural chain unless it says otherwise.
UniProt F7BJB9: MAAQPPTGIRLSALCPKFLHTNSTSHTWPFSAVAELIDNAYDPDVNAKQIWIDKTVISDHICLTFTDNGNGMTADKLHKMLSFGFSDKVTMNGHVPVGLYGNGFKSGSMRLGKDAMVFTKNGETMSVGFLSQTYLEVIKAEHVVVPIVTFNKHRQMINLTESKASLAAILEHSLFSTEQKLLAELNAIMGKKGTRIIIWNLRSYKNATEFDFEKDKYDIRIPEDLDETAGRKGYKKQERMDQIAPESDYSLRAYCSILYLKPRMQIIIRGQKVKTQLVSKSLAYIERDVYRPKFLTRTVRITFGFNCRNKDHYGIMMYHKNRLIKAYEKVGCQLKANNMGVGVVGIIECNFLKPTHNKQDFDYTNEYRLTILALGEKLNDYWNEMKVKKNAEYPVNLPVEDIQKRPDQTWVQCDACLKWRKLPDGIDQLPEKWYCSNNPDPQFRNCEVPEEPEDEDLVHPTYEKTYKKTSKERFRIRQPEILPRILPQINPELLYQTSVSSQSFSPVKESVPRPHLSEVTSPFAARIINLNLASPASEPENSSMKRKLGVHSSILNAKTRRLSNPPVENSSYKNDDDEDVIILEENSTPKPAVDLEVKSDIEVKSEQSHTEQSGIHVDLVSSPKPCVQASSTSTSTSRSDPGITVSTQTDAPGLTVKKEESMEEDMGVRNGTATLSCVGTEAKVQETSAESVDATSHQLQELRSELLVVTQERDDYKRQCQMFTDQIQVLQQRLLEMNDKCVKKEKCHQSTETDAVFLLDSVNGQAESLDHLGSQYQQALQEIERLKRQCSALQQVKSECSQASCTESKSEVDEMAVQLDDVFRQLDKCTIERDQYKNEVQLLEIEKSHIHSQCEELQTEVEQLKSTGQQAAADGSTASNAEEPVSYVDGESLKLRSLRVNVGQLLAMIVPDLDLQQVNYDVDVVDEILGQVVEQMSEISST
UniProt O08585: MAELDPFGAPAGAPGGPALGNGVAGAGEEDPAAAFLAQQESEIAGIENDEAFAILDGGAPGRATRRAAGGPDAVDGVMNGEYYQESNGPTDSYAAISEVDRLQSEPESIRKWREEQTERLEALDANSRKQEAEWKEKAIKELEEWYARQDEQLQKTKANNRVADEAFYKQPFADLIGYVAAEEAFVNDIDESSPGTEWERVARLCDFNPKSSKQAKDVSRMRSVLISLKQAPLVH
UniProt E9QAM5: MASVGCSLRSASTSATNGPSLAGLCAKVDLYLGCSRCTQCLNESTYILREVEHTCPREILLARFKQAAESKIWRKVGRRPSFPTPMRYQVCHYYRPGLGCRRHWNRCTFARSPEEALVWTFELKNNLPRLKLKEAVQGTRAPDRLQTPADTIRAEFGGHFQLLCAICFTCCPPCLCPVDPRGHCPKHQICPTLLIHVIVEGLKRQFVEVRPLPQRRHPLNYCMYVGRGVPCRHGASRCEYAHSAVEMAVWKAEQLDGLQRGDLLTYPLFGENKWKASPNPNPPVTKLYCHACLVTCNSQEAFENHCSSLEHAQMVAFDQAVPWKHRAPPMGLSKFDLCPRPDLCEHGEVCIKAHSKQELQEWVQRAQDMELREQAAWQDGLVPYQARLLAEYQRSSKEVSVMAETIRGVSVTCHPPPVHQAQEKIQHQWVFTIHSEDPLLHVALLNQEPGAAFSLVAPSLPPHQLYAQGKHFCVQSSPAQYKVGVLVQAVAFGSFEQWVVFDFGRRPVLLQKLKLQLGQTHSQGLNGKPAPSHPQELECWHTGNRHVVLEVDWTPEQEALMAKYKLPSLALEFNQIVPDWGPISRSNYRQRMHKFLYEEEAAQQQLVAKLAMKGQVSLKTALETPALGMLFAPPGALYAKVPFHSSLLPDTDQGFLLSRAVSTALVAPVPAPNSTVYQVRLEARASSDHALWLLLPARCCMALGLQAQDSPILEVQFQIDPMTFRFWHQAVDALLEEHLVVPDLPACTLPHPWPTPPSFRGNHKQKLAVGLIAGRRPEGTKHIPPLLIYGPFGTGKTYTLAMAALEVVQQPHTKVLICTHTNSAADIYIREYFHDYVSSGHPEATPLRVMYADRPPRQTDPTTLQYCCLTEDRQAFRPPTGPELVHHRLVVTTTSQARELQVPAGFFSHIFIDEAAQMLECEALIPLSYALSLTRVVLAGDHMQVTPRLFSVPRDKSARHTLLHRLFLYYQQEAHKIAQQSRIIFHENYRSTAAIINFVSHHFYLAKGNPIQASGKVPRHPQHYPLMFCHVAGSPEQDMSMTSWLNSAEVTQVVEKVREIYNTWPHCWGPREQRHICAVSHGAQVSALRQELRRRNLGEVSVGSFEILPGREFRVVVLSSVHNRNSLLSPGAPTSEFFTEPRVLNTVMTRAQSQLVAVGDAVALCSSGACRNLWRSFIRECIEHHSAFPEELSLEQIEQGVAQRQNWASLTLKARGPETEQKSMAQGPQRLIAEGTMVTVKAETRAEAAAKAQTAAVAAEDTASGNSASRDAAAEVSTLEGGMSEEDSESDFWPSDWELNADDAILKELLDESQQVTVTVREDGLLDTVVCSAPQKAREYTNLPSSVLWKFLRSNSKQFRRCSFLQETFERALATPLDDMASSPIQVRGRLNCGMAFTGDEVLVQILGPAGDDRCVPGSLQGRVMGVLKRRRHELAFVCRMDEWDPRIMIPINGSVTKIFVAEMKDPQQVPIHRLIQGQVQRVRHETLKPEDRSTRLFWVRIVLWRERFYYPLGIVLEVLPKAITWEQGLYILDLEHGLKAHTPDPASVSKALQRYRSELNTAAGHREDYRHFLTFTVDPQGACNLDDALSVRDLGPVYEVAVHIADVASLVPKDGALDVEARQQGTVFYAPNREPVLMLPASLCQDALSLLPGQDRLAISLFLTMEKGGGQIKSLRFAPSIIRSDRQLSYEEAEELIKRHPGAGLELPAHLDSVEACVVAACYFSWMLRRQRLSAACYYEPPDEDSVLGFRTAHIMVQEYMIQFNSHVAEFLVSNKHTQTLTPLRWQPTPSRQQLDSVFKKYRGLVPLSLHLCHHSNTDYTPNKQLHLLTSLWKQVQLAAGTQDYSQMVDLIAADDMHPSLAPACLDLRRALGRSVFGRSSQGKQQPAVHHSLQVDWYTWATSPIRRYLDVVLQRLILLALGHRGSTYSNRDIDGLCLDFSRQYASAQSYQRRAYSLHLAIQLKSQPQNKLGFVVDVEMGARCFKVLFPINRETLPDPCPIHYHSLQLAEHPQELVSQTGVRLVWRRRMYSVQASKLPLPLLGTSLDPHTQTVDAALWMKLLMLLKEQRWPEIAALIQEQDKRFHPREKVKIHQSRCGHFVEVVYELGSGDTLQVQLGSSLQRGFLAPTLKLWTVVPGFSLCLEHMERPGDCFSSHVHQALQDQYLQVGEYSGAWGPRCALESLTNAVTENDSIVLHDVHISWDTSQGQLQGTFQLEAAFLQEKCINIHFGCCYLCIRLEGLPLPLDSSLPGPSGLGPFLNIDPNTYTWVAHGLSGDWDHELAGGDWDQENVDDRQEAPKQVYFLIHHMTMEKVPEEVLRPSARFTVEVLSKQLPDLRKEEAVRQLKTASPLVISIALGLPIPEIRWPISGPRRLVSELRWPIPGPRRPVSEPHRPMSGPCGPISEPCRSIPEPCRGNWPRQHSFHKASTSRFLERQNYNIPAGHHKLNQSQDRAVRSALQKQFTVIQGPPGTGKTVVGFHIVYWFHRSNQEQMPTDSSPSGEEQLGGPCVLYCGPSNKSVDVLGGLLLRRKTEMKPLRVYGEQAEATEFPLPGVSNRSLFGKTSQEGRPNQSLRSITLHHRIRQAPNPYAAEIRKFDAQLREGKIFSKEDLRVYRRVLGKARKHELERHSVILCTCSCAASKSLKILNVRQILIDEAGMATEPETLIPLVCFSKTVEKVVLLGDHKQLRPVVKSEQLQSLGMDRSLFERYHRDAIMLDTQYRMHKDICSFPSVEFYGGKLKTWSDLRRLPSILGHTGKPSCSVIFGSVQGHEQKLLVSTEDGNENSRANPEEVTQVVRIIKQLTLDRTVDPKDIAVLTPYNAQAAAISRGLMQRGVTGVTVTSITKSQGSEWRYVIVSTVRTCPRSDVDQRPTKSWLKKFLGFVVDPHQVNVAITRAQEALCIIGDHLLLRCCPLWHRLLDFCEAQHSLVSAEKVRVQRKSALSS
UniProt O35143: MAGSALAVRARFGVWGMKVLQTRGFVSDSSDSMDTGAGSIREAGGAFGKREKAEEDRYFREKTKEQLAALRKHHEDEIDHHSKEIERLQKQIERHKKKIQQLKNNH
UniProt O08586: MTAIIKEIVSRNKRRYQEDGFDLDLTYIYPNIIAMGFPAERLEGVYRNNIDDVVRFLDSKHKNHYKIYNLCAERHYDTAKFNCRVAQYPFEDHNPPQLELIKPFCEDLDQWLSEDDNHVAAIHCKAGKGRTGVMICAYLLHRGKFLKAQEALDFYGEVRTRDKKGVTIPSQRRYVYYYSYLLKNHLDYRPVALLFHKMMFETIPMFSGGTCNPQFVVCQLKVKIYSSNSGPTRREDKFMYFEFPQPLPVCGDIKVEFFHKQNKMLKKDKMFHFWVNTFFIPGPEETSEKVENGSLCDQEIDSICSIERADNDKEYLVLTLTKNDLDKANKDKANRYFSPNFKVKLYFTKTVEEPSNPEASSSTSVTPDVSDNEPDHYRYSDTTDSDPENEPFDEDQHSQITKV
UniProt O08573: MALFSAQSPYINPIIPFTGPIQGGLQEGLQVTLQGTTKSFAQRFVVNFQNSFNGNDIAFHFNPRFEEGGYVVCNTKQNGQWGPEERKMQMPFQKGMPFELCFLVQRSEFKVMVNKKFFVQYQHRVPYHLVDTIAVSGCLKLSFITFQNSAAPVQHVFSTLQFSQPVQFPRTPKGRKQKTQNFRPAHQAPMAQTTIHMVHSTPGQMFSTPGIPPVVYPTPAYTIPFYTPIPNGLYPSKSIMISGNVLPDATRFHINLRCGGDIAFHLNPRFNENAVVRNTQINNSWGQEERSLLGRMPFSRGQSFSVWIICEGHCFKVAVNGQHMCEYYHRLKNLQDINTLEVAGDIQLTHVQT
UniProt E9Q3C1: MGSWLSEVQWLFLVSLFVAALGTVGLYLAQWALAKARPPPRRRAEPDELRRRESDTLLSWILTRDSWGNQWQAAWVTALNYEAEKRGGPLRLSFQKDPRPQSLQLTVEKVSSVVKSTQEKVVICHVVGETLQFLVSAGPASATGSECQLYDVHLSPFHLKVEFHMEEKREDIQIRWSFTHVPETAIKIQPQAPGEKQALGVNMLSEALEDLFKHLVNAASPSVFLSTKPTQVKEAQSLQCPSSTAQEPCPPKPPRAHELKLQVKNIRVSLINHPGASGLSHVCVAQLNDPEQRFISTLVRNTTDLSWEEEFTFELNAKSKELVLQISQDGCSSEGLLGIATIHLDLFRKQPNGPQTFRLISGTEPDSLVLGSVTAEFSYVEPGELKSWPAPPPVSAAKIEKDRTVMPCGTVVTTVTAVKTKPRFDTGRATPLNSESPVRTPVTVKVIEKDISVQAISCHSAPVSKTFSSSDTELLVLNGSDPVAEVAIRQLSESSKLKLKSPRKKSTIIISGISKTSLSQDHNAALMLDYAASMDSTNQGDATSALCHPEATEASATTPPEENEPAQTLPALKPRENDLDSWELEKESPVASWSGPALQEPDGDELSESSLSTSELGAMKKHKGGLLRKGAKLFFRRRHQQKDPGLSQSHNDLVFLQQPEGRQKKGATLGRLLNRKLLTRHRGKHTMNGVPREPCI
UniProt F6VAN0: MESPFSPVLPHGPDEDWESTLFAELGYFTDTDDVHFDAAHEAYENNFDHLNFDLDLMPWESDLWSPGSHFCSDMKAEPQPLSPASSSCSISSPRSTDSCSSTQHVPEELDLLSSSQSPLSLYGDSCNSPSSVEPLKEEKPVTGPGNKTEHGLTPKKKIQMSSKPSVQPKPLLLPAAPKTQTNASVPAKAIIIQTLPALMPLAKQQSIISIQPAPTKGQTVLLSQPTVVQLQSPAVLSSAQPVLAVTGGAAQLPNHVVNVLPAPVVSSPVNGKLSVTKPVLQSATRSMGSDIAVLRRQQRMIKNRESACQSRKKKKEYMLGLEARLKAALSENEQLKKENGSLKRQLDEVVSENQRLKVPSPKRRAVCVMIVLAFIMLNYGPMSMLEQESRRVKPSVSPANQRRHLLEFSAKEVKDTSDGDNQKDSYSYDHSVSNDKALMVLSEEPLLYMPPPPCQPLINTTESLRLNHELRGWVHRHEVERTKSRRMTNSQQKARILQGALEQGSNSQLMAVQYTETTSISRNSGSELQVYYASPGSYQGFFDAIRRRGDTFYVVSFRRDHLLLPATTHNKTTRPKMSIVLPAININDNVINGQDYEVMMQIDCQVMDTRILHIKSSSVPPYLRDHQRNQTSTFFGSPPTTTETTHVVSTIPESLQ
UniProt E9Q9D5: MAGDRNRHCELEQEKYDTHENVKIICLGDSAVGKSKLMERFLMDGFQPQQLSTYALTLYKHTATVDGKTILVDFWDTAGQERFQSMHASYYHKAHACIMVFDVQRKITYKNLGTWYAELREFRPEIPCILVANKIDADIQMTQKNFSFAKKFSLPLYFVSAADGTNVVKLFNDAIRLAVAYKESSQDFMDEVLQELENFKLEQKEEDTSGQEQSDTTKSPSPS

This is one part of the list. Small differences around the control level are noise.

Compound in this assay: CN[C@@H]1C[C@H]2O[C@@](C)([C@@H]1OC)n1c3ccccc3c3c4c(c5c6ccccc6n2c5c31)C(=O)NC4 [staurosporine]
Put plainly: log2 fold change of tryptic peptide abundance, ligand vs vehicle (limited proteolysis) (log2 ratio); higher = more trypsin-susceptible (destabilized). The settings on record: ligand concentration: 20 uM; sample: mouse liver crude lysate; replicate design: treated separately.
“UniProt F7BJB9 (peptide sequence: LGVHSSILNAK, peptide start residue: 548)”: the log2 fold change is 0.7.

Regarding “UniProt E9Q286 (peptide sequence: SSGSADSTSWHR, peptide start residue: 753)”, the log2 fold change is -0.449.

Regarding “UniProt E9PV87 (peptide sequence: VHLFEDTSTEK, peptide start residue: 150)”, the log2 fold change is -0.301.

On to “UniProt O08585 (peptide sequence: WREEQTERLEALDANSR, peptide start residue: 112)”, for which the log2 fold change was -0.186.

Turning to “UniProt E9Q6W4 (peptide sequence: SHGPGGK, peptide start residue: 355)”, the log2 fold change is 0.294.

With “UniProt O35454 (peptide sequence: KDYESLDYDR, peptide start residue: 46)”, the log2 fold change is -0.39.

On to “UniProt E9QAM5 (peptide sequence: YQVCHYYRPGLGCR, peptide start residue: 88)”, for which the log2 fold change was 0.506.

For the target “UniProt O35166 (peptide sequence: QRDELLSR, peptide start residue: 100)”, the log2 fold change was determined as 0.138.

As to “UniProt G3X9X1 (peptide sequence: SVVVQGLYK, peptide start residue: 243)”, the log2 fold change is -0.158.

Consider “UniProt O35143 (peptide sequence: TKEQLAALR, peptide start residue: 63)”, for which the log2 fold change came to 0.0725.

Take “UniProt O08586 (peptide sequence: NHLDYRPVALLFHK, peptide start residue: 184)”: the log2 fold change amounted to 0.206.

In the case of “UniProt D7PDD4 (peptide sequence: GTPTVLQHFSGR, peptide start residue: 70)”, the log2 fold change is -0.514.

As to “UniProt O35245 (peptide sequence: HLPLEGQPPR, peptide start residue: 175)”, the log2 fold change worked out at 0.375.

Regarding “UniProt O35385 (peptide sequence: VLVLHGGVSDK, peptide start residue: 288)”, the log2 fold change came out at 0.237.

With “UniProt O08573 (peptide sequence: FFVQYQHR, peptide start residue: 117)”, the log2 fold change worked out at 0.506.

Consider “UniProt E9Q3C1 (peptide sequence: GKHTMNGVPREPCI, peptide start residue: 683)”, for which the log2 fold change was -0.331.

On to “UniProt O09044 (peptide sequence: AHQVTDESLESTRR, peptide start residue: 13)”, for which the log2 fold change was -0.0584.

For “UniProt D3YXK2 (peptide sequence: DGWGYGSNK, peptide start residue: 818)”, the log2 fold change was -0.26.

In the case of “UniProt B2RX14 (peptide sequence: NILPITTAKVPIVK, peptide start residue: 1091)”, the log2 fold change stood at 0.255.

As to “UniProt F6VAN0 (peptide sequence: LSVTKPVLQSATR, peptide start residue: 273)”, the log2 fold change is -0.19.

On to “UniProt E9Q1U1 (peptide sequence: SELHTACLR, peptide start residue: 1238)”, for which the log2 fold change was -0.297.

Take “UniProt E9PV24 (peptide sequence: NNKDSNSLTR, peptide start residue: 99)”: the log2 fold change was 0.214.

With “UniProt E0CYC6 (peptide sequence: QYQDSDHK, peptide start residue: 8)”, the log2 fold change worked out at 0.309.

For “UniProt O08550 (peptide sequence: VLSLGPAPEPPKPATSK, peptide start residue: 2170)”, the log2 fold change is -0.325.

Consider “UniProt O08759 (peptide sequence: GFHMVTNESPLK, peptide start residue: 731)”, for which the log2 fold change came to 0.345.

On to “UniProt B2RXA1 (peptide sequence: MGTICSPNPSGTK, peptide start residue: 13)”, for which the log2 fold change stood at 0.323.

“UniProt G5E8P0 (peptide sequence: WNVHGHVSDASIK, peptide start residue: 1092)”: the log2 fold change came out at 0.397.

“UniProt E9Q9D5 (peptide sequence: FQSMHASYYHK, peptide start residue: 83)”: the log2 fold change came to 0.407.

In the case of “UniProt O35071 (peptide sequence: TYGKPEGPGDAWR, peptide start residue: 785)”, the log2 fold change was 0.241.

As for “UniProt E9PUN2 (peptide sequence: VVDEWLLDKGR, peptide start residue: 1274)”, the log2 fold change is -0.0611.

In the case of “UniProt O35464 (peptide sequence: DVAVVQRK, peptide start residue: 680)”, the log2 fold change is -0.0317.
